{"source": "PubChem BioAssay AID1259306 (Sanger Institute, 2017)", "test": "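Kinases needed for viability and knock-downs that synergise with BYL719, cetuximab or trametinib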 (primary screen)", "system": "human SNU-C5 colorectal cancer cells", "reagent": "siRNA pool against human genes", "challenge": "DMSO vehicle alone, or one anchor drug: BYL719 at 1 µM, cetuximab at 5 µg/ml or trametinib at 10 nM, given 24 h into the assay", "read-out": "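Replicate-averaged viability against non-targeting pool control, given as fraction and robust z-score; separate synergy scores for BYL719, cetuximab and trametinib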", "reading the numbers": "robust z-score, knock-down alone and viability, knock-down alone: higher = more viable cells", "hit rule": "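Essential if knock-down without drug gives a robust z-score under -3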", "meaning of the calls": "active = essential (knock-down alone); inactive = no change alone", "note": "In all, the deposit lists 794 reagents; shown is a random part of them. 11 of them (1.4%) count as active. 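Calls reflect knock-down alone; synergy scores play no part, so knock-downs synergising with a drug can be called no change.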 Reagents against one gene are numbered here. No viability above 1 is reported: the scale is capped. Further read-outs or replicates are left out here. Not stated in the record: the amount of reagent, the time to read-out."}
{"gene": "ILK", "reagent no.": 1, "robust z-score, knock-down alone": 0.04, "viability, knock-down alone": 0.869, "call": "inactive"}
{"gene": "ILK", "reagent no.": 2, "robust z-score, knock-down alone": 0.0571, "viability, knock-down alone": 0.872, "call": "inactive"}
{"gene": "DAPK1", "reagent no.": 1, "robust z-score, knock-down alone": -0.388, "viability, knock-down alone": 0.81, "call": "inactive"}
{"gene": "CDK5", "reagent no.": 1, "robust z-score, knock-down alone": 0.43, "viability, knock-down alone": 0.923, "call": "inactive"}
{"gene": "DGKG", "reagent no.": 1, "robust z-score, knock-down alone": -0.173, "viability, knock-down alone": 0.84, "call": "inactive"}
{"gene": "CAMK2G", "reagent no.": 1, "robust z-score, knock-down alone": -2.78, "viability, knock-down alone": 0.481, "call": "inactive"}
{"gene": "STYK1", "reagent no.": 1, "robust z-score, knock-down alone": -0.666, "viability, knock-down alone": 0.772, "call": "inactive"}
{"gene": "FRK", "reagent no.": 1, "robust z-score, knock-down alone": 0.989, "viability, knock-down alone": 1, "call": "inactive"}
{"gene": "TAOK2", "reagent no.": 1, "robust z-score, knock-down alone": 0.771, "viability, knock-down alone": 0.97, "call": "inactive"}
{"gene": "CMPK1", "reagent no.": 1, "robust z-score, knock-down alone": 0.611, "viability, knock-down alone": 0.948, "call": "inactive"}
{"gene": "CSNK2A1", "reagent no.": 1, "robust z-score, knock-down alone": 0.989, "viability, knock-down alone": 1, "call": "inactive"}
{"gene": "CDK3", "reagent no.": 1, "robust z-score, knock-down alone": 0.895, "viability, knock-down alone": 0.987, "call": "inactive"}
{"gene": "BUB1B", "reagent no.": 1, "robust z-score, knock-down alone": -0.617, "viability, knock-down alone": 0.779, "call": "inactive"}
{"gene": "CDC42BPG", "reagent no.": 1, "robust z-score, knock-down alone": 0.897, "viability, knock-down alone": 0.987, "call": "inactive"}
{"gene": "ADPGK", "reagent no.": 1, "robust z-score, knock-down alone": 0.237, "viability, knock-down alone": 0.896, "call": "inactive"}
{"gene": "PSKH2", "reagent no.": 1, "robust z-score, knock-down alone": 0.989, "viability, knock-down alone": 1, "call": "inactive"}

The list goes on (2 carried over from the part before).
{"gene": "ADPGK", "reagent no.": 1, "robust z-score, knock-down alone": 0.237, "viability, knock-down alone": 0.896, "call": "inactive"}
{"gene": "PSKH2", "reagent no.": 1, "robust z-score, knock-down alone": 0.989, "viability, knock-down alone": 1, "call": "inactive"}
{"gene": "SPEG", "reagent no.": 1, "robust z-score, knock-down alone": 0.107, "viability, knock-down alone": 0.878, "call": "inactive"}
{"gene": "PKN2", "reagent no.": 1, "robust z-score, knock-down alone": -0.99, "viability, knock-down alone": 0.727, "call": "inactive"}
{"gene": "TK2", "reagent no.": 1, "robust z-score, knock-down alone": 0.989, "viability, knock-down alone": 1, "call": "inactive"}
{"gene": "NUP62", "reagent no.": 1, "robust z-score, knock-down alone": -0.843, "viability, knock-down alone": 0.748, "call": "inactive"}
{"gene": "HCK", "reagent no.": 1, "robust z-score, knock-down alone": 0.531, "viability, knock-down alone": 0.937, "call": "inactive"}
{"gene": "SIK1", "reagent no.": 1, "robust z-score, knock-down alone": 0.435, "viability, knock-down alone": 0.924, "call": "inactive"}
{"gene": "HIPK1", "reagent no.": 1, "robust z-score, knock-down alone": 0.48, "viability, knock-down alone": 0.93, "call": "inactive"}
{"gene": "SPHK1", "reagent no.": 1, "robust z-score, knock-down alone": 0.00802, "viability, knock-down alone": 0.865, "call": "inactive"}
{"gene": "MET", "reagent no.": 1, "robust z-score, knock-down alone": 0.989, "viability, knock-down alone": 1, "call": "inactive"}
{"gene": "ALK", "reagent no.": 1, "robust z-score, knock-down alone": -0.219, "viability, knock-down alone": 0.834, "call": "inactive"}
{"gene": "PXK", "reagent no.": 1, "robust z-score, knock-down alone": -0.713, "viability, knock-down alone": 0.765, "call": "inactive"}
{"gene": "STK35", "reagent no.": 1, "robust z-score, knock-down alone": 0.321, "viability, knock-down alone": 0.908, "call": "inactive"}
